Results are given in words; binding and its absence hold for the method and conditions named. Some entries that bind do so weakly or less than the wild type.

Amino acid sequences for entries named in this document (tags omitted). A change or cut given only in a name is not applied to a line headed by its entry.
UniProt P04386: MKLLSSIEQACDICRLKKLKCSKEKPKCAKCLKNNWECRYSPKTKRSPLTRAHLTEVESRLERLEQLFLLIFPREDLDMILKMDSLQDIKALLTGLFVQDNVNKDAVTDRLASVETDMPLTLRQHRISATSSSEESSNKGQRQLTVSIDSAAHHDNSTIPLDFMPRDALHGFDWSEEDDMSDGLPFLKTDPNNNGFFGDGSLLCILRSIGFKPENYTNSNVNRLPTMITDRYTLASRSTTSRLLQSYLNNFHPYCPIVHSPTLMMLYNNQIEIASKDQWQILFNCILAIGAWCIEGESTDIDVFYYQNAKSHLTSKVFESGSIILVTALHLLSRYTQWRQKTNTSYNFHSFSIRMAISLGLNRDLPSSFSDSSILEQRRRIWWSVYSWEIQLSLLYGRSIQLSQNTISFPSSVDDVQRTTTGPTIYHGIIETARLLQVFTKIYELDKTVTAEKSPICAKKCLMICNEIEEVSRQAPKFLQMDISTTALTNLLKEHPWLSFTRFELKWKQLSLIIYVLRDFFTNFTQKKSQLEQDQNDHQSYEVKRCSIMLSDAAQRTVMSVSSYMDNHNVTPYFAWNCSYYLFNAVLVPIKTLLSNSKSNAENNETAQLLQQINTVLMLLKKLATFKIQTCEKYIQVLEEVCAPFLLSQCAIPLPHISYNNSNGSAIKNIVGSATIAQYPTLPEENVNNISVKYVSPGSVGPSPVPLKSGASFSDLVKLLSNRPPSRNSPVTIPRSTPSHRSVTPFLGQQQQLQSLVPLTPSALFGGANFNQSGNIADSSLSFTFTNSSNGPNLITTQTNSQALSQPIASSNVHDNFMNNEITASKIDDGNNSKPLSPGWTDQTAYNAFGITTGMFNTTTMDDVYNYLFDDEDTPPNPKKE
UniProt Q60680: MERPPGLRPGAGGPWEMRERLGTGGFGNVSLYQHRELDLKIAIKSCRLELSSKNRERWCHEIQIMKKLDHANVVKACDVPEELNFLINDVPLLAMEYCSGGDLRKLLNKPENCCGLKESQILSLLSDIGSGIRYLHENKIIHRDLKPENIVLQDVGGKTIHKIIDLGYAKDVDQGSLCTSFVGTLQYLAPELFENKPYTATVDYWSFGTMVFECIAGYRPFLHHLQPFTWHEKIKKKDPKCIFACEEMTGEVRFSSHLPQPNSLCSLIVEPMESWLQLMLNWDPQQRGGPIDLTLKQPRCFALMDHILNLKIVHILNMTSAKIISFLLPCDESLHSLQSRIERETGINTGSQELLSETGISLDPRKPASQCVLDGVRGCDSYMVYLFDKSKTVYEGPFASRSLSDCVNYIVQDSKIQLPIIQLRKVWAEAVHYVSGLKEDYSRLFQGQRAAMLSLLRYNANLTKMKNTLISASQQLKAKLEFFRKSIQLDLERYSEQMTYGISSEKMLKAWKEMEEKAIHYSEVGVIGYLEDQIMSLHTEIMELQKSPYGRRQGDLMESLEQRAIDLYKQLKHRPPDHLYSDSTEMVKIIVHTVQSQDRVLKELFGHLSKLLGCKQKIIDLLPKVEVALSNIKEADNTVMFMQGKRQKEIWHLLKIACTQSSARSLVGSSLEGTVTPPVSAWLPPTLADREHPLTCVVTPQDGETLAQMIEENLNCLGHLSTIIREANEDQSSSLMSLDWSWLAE
UniProt P25685: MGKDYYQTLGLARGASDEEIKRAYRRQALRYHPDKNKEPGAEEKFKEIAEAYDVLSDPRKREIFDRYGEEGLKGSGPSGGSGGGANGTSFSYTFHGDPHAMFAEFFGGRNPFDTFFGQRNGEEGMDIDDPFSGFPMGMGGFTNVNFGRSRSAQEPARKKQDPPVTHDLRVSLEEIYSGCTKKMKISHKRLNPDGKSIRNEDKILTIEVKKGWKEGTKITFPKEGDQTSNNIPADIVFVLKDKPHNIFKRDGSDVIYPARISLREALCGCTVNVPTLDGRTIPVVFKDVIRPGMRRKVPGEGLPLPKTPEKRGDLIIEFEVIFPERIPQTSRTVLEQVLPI
UniProt Q9UNS2: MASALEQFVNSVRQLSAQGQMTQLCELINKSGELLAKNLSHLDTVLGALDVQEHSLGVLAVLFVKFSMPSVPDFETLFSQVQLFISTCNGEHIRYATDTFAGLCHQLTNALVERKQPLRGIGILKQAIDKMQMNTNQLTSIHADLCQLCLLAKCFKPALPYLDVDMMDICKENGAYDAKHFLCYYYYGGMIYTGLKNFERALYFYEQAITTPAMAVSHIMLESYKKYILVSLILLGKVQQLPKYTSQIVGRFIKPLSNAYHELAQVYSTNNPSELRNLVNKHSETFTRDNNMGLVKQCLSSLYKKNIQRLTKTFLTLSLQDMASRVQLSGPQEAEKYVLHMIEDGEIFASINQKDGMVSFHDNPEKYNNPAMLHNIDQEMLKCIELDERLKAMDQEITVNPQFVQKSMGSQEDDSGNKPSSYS

Experiment [1] addresses T1, IKKα bait: 937 bp SnaBI/XhoI fragment of the murine IKKα clone encoding the protein's leucine zipper, helix-loop-helix and carboxyl terminus, in the pGTB9c bait vector (murine) (UniProt P04386+Q60680). Put plainly: yeast two-hybrid, relative interaction strength by colony growth rate.
Experiment [2] concerns the target T1, IKKα bait: 937 bp SnaBI/XhoI fragment of the murine IKKα clone encoding the protein's leucine zipper, helix-loop-helix and carboxyl terminus, in the pGTB9c bait vector (murine). Put plainly: yeast two-hybrid, colony growth.

In the case of “Y2h clone 31, Hsp40 (from UniProt P25685 1-340)”, the binding result in experiment [1] and in experiment [2] was “binds” throughout.
As for “Y2h clone 70, HuSgn3 (from UniProt Q9UNS2 1-423)”, the binding result in experiment [1] was “binds”.

(Values after patent US6365722.)
